# Library screen at single concentrations

Sequences of proteins named here, by UniProt entry; tags and fusion partners are left off. Residues count along the entry.
UniProt Q8IDJ8, 1-583: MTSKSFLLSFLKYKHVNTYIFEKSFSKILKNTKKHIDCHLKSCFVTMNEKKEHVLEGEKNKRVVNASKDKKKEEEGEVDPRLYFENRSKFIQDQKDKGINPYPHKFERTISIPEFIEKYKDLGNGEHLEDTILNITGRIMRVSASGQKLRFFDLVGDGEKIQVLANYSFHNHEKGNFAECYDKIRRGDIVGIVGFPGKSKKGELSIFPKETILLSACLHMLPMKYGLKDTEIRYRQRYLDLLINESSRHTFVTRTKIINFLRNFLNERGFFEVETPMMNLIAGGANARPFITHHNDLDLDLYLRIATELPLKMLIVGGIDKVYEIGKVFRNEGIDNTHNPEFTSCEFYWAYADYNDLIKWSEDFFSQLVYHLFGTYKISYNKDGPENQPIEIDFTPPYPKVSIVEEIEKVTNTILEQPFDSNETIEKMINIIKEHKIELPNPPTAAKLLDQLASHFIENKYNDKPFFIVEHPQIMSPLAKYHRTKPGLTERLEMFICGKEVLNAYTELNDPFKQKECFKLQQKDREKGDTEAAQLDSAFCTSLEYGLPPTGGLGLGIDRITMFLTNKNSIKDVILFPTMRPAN
UniProt Q4DA54, 1-478: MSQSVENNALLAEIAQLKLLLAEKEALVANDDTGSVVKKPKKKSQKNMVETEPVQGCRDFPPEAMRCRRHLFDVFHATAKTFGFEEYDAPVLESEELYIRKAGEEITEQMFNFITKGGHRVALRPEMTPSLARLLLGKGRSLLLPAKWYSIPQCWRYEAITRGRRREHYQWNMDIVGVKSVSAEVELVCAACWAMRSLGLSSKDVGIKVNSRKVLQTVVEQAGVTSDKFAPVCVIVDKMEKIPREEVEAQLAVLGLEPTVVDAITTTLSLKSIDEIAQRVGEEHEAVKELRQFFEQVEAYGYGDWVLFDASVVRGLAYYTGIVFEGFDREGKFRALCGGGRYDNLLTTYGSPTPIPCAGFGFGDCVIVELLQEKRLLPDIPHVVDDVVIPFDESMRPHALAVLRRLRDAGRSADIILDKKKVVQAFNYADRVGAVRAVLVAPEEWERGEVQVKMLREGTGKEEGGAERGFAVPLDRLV

Data taken from ChEMBL document CHEMBL3988442, “University of Dundee, Small-Polar-MMV Screening Library” (2021).

Leishmania in macrophages: 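Cell assay of Leishmania donovani living inside macrophages; the read-out is not stated. Concentration: 30 µM. Higher reads as stronger inhibition (inferred: compounds with an IC50 in retests scored well above the rest). About 69,000 compounds were tested under these conditions; 1.5% (about 1,000) showed 50% or more at least once.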
T. brucei: 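Whole-parasite assay of Trypanosoma brucei over 72 hours; the read-out is not stated. Compounds at 30 µM. Direction is inferred from retests: higher values go with stronger inhibition. Values scatter widely below zero; nearly all retest evidence comes from the higher of the two concentrations used. About 64,000 compounds were tested under these conditions; 1.5% (about 940) showed 50% or more at least once.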
Toxoplasma: 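Assay of Toxoplasma gondii numbers, read through their beta-galactosidase reporter with a colour substrate. Concentration: 10 µM. The record gives no direction; the compounds picked for IC50 retests had high values, so higher reads as fewer parasites. Of about 67,000 compounds tested this way, about 260 (0.38%) reached 50% or more in at least one test.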
PfKRS1: 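Enzyme assay of the cytosolic lysyl-tRNA synthetase in 384-well plates, read by luminescence. Target: Lysine-tRNA ligase, Plasmodium falciparum 3D7 (UniProt Q8IDJ8). Compounds at 30 µM. Higher reads as stronger inhibition, judged from the few compounds that gave an IC50. About 69,000 compounds were tested under these conditions; 0.071% (about 49) showed 50% or more at least once.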
TcHisRS: 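Enzyme assay of histidyl-tRNA synthetase; the read-out is not stated. Target: Histidine-tRNA ligase, Trypanosoma cruzi CL Brener (UniProt Q4DA54). Tested at 30 µM. Direction is inferred from retests: higher values go with stronger inhibition. Size under these conditions: about 69,000 compounds, about 31 of them at 50% or above in at least one test.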

Values are the deposited “Percent Effect”, in %. The controls that fix the scale are not given in the record; negative values are as filed. Compounds were drawn at random from those tested, without regard to their results. Two or more numbers in one place are separate tests of the same structure; such repeats can differ widely. A dash means the value is not listed here; it may have been measured.

| # | SMILES | Leishmania in macrophages | T. brucei | Toxoplasma | PfKRS1 | TcHisRS |
|---|---|---|---|---|---|---|
| 1 | `CC(C)c1ccc(-n2cc(O)c(C(=O)O)n2)cc1` | 2.392 | - | 4.31 | 8.438 | 5.747 |
| 2 | `O=C(c1[nH]nc(C2CC2)c1Cl)N1CCCC1` | 0.666 | -29.18 | -1.789 | 1.41 | 9.091 |
| 3 | `[H][C@@]12CNCC[C@]1(O)CCN(Cc1c(OCCC)ccc3ccccc13)C2` | 19.78 | 5.099 | 3.549 | - | - |
| 4 | `CCCN1CCN(C(=O)c2cnc(C)nc2)[C@H]2CS(=O)(=O)C[C@H]21` | - | - | - | 5.539 | 5.102 |
| 5 | `Cc1c(NC(C)C(C)C)cccc1C(=O)NCc1ccnn1C` (stereo unspecified) | 31.54 | 4.278 | 6.471 | 1.809 | 1.724 |
| 6 | `COC(=O)[C@H](C)NC(=O)Cc1c(C)nc2cc(=O)[nH]n2c1C` | -3.109 | 7.683 | -5.725 | 0.2408 | 6.349 |
| 7 | `CN1CCN(C(=O)[C@@H]2C[C@@H]3CCN(c4cccc(F)c4)C[C@H]3O2)CC1` | - | - | - | 0.2123 | 9.524 |
| 8 | `CC1CCN(CCNC(=O)c2ccccc2N2CCOCC2)CC1` | 13.89 | -9.264 | -6.04 | 5.111 | 9.917 |
| 9 | `[H][C@]12CN(Cc3cccc(OC(F)(F)F)c3)CCN1C(=O)N(CCOC)C2` | 10.95 | 12.77 | 13.56 | - | - |
| 10 | `Cc1ccc(NC2CCN(C(=O)c3cccc4cccnc34)CC2)nn1` | 11.56 | -6.079 | -35.36 | -0.8858 | 2.305 |
| 11 | `CCOc1cc(CNCCCn2ccnc2)cc(Cl)c1OCC` | 81.44 | -40.76 | 13.46 | -10.14 | -4.545 |
| 12 | `Cc1ncc(-c2ccnc(SCCN)n2)c(-c2ccco2)n1` | 0.9633 & 4.738 | -23.52 | 2.298 | -3.242 | -1.13 |
| 13 | `CC(=O)N1CCOC(c2nc(N(C)C)ncc2-c2cccc(F)c2)C1` (stereo unspecified) | 14.24 | -3.402 | 11.39 | 0.7749 | 3.802 |
| 14 | `Cc1ccc(C(=O)NS(=O)(=O)c2cc(Br)ccc2C)c(=O)[nH]1` | 14.9 | -6.812 | -17.33 | -0.725 | 0 |
| 15 | `Cc1csc(N2CCCN(C(=O)c3csc(C)n3)CC2)n1` | 10.16 | 5.722 | 0.7549 | 1.335 | 3.39 |
| 16 | `Cc1nnc(N2CC[C@H]3C[C@H](C(=O)N(C)C)O[C@@H]3C2)s1` | - | - | - | 2.597 | 11.76 |
| 17 | `Cc1ccoc1C(=O)N1CCNCC1C(=O)NCc1ccncc1` (stereo unspecified) | -10.22 | -15.8 | -9.732 | 1.013 | 9.189 |
| 18 | `COCCC(=O)N1CCC2(CCN(Cc3cccc(F)c3)C2)C1` (stereo unspecified) | 30.85 | -19.97 | -15.73 | -1.525 | 4.082 |
| 19 | `Cn1cc(CN2CCc3c(COCC4CC4)cncc3C2)cn1.O=C(O)C(F)(F)F.O=C(O)C(F)(F)F` | -23.02 | -37.52 | -0.6631 | - | - |
| 20 | `CC(C)CN1CC(c2nc(-c3ccsc3)c[nH]2)CC1=O` (stereo unspecified) | -13.93 | 0.1942 | 1.006 | 6.414 | -0.5435 |
| 21 | `COc1ccc(C(C)(C)C)cc1CN1CCn2c(CO)nnc2C1` | - | - | - | 1.068 | 4.478 |
| 22 | `CCCN1CCN(C(=O)c2ccc(Cl)cn2)[C@H]2CS(=O)(=O)C[C@H]21` | - | - | - | 4.886 | 2.041 |
| 23 | `O=C(Cn1cncn1)NCC1CCN(Cc2ccccc2Cl)CC1` | 29.53 | -3.615 | -10.69 | 2.521 | 9.639 |
| 24 | `COc1cccc2sc(N3CCN(C(=O)c4cc(C)on4)CC3)nc12` | -10.4 | -48.38 | 9.936 | 0.3855 | 11 |
| 25 | `O=C(c1nnn(-c2ccc(C(F)(F)F)cc2)n1)N1CCC(O)CC1` | 0.5237 & 12.18 | 3.915 | -6.692 | 4.04 | 4.124 |
| 26 | `CC(C)c1cccc(-n2cc(O)c(C(=O)O)n2)c1` | 15.04 | 1.53 | 0.7941 | 6.168 | 9.524 |
| 27 | `O=c1[nH]nc(SCC2CCCO2)n1C1CC1` (stereo unspecified) | 15.94 | -12.39 | -4.324 | 4.371 | 9.74 |
| 28 | `CCn1cc(NC(=O)NCc2ccc3c(c2)OCCO3)cn1` | 18.09 | 3.421 | -0.7786 | 3.266 | 4.943 |
| 29 | `COCc1noc(-c2ccc(N3CCCCC3COC)nc2)n1` (stereo unspecified) | -0.562 | -1.605 | -0.8246 | 3.393 | 2.041 |
| 30 | `CN1CCOC(CNC(=O)Cc2coc(-c3ccccc3)n2)C1` (stereo unspecified) | 25.78 | -0.1289 | -13.82 | -0.4562 | 3.488 |
| 31 | `CC(=O)N1CC[C@H]2OCC[C@@H](C(=O)Nc3cccnc3C)[C@H]2C1` | - | - | - | 0.1871 | 3.911 |
| 32 | `Nc1nccnc1CC1CCCN(Cc2cccc3[nH]ccc23)C1` (stereo unspecified) | 15.73 | - | - | 0.494 | 3.846 |
| 33 | `Cc1cnn(CCC(=O)N2CCN(C(=O)C3CC3)[C@@H]3CS(=O)(=O)C[C@@H]32)c1` | - | - | - | 8.086 | 7.2 |
| 34 | `CCCNC(=O)c1c(-n2cnnn2)sc2c1CCC2` | 6.791 | -10.16 | -3.268 | 7.417 | 3.261 |
| 35 | `CCCn1nc2c(cc1=O)CN(CC(=O)N(C)c1nccs1)CC2` | 18.66 | -78.81 | 17.02 | 6.495 | 14.12 |
| 36 | `CC(C(=O)O)n1nc(C(F)(F)F)c(Br)c1C1CC1` (stereo unspecified) | 16.2 | -1.435 | 3.753 | 5.988 | 1.339 |
| 37 | `COc1cccc(OCC(=O)N2CCC3(CC2)[C@H](O)C[C@@H]3OC)c1` | 2.644 | -3.062 | -4.98 | 10.95 | 9.091 |

Once more, the final 2:

{"smiles": "CC(C(=O)O)n1nc(C(F)(F)F)c(Br)c1C1CC1", "stereo": "stereo unspecified", "Leishmania in macrophages": 16.2, "T. brucei": -1.435, "Toxoplasma": 3.753, "PfKRS1": 5.988, "TcHisRS": 1.339}
{"smiles": "COc1cccc(OCC(=O)N2CCC3(CC2)[C@H](O)C[C@@H]3OC)c1", "Leishmania in macrophages": 2.644, "T. brucei": -3.062, "Toxoplasma": -4.98, "PfKRS1": 10.95, "TcHisRS": 9.091}